Data taken from article PMC7480864.
No constants are given. Whether binding was seen depends on the method and setting. Binding seen in cells or lysates may run through a third protein. Binding can be weak; no strength is given. Where a sequence is shown, tags or fusion partners need not be part of it.

Target: T1, Tagged SHMT2 (mouse) (UniProt Q9CZN7)
T1 sequence: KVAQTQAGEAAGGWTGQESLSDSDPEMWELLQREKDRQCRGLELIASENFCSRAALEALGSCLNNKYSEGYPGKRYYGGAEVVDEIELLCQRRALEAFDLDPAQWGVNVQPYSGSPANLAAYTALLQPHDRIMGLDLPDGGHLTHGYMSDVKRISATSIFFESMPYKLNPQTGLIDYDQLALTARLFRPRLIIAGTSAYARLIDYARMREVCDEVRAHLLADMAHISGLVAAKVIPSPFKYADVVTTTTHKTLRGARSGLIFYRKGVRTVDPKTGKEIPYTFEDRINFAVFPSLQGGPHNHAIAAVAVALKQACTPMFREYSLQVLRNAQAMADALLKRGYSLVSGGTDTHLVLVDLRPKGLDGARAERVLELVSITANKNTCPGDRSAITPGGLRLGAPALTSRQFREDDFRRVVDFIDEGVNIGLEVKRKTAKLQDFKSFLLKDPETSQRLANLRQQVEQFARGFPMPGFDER
Assay: co-IP; lysis in NP-40 buffer (1% NP40, 0.5% deoxycholate, 50 mM Tris pH 7.5, 150 mM NaCl); anti-FLAG M2 affinity agarose beads; western blot with antibodies to SHMT2 and ACOT2

Acyl-coenzyme A thioesterase 2, mitochondrial (human (endogenous in HeLa))
binding: binds
